The experiment concerns the target pKal complexed with HMWK bound to HUVEC cells (human) (UniProt P03952+P01042). Briefly: ELISA; HUVEC in 96-well plates, treated with 40 nM HMWK in 20 mM HEPES, 150 mM NaCl, 2 mM CaCl2, 1 mM MgCl2, pH 7.5 + 50 uM ZnSO4, 0.5 mg/ml BSA for 1 h at 25 °C, then 3 nM pKal 1 h; biotinylated DX-2930 added 2 h, detected by streptavidin-alkaline phosphatase; only the binder purified. For orientation: In an ELISA, binding on a coated surface is turned into a signal by an enzyme label.

By UniProt entry, the sequences of proteins in these tests, tags left out. Where a name states a change or a piece, a line headed by the entry shows the natural chain unless it says otherwise.
UniProt P03952: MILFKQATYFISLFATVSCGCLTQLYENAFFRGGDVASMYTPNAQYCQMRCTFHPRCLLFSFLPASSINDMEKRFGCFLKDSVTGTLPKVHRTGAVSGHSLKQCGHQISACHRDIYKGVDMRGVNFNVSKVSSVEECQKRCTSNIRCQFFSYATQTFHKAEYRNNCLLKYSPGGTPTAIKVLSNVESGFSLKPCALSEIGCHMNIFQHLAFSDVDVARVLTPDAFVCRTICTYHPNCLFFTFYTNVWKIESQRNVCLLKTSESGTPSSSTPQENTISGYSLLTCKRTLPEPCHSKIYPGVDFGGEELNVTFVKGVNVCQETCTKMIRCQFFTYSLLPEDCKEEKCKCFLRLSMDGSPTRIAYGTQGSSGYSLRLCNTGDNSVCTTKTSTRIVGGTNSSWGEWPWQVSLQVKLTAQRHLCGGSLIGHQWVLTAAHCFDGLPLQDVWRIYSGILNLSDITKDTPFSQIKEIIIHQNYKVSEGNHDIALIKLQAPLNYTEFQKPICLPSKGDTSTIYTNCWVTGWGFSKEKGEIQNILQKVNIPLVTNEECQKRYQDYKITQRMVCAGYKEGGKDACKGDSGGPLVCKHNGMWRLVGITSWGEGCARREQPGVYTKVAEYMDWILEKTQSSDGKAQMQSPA
UniProt P01042: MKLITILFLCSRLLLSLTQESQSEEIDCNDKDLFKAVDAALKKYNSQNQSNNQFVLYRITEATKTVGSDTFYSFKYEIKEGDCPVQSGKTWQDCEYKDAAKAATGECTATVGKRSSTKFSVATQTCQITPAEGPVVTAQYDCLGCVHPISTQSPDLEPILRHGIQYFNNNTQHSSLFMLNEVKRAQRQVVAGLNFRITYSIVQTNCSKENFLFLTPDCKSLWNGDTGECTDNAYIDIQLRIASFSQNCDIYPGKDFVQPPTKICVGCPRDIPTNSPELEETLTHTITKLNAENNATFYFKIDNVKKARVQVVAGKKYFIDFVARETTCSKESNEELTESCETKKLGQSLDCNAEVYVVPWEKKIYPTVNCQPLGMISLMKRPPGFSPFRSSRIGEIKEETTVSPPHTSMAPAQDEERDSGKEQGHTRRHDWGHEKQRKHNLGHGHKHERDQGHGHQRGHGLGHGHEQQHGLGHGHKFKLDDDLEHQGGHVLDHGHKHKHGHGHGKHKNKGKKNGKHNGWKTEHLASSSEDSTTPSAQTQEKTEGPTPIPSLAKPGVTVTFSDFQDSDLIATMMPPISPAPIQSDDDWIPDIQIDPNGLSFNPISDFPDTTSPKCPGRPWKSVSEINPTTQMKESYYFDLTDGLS

Experimental findings from paper PMC4156074 are described below.

No constants are given. Whether binding was seen depends on the method and setting. Some results given as binding are weak or reduced against the parent protein; the word gives no strength.

B1: C1 Inhibitor (protein, UniProt P05155 23-500)
chain: NPNATSSSSQDPESLQDRGEGKVATTVISKMLFVEPILEVSSLPTTNSTTNSATKITANTTDEPTTQPTTEPTTQPTIQPTQPTTQLPTDSPTQPTTGSFCPGPVTLCSDLESHSTEAVLGDALVDFSLKLYHAFSAMKKVETNMAFSPFSIASLLTQVLLGAGENTKTNLESILSYPKDFTCVHQALKGFTTKGVTSVSQIFHSPDLAIRDTFVNASRTLYSSSPRVLSNNSDANLELINTWVAKNTNNKISRLLDSLPSDTRLVLLNAIYLSAKWKTTFDPKKTRMEPFHFKNSVIKVPMMNSKKYPVAHFIDQTLKAKVGQLQLSHNLSLVILVPQNLKHRLEDMEQALSPSVFKAIMEKLEMSKFQPTLLTLPRIKVTTSQDMLSIMEKLEFFDFSYDLNLCGLTEDPDLQVSAMQHQTVLELTETGVEAAAASAISVARTLLVFEVQQPFLFVLWDQQHKFPVFMGRVYDPRA
Consider B1, for which the binding result is recorded as “binds weakly”.
